The supplement of paper PMC11546906
Counter-ions that a name gives are not always drawn. The list shows a part of the results. Repeats in this data set agree poorly, so a single value says little.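 A screen tested FDA-approved drugs combined with one-eighth-MIC colistin against a clinical mcr-1-positive, multidrug-resistant E. coli isolate, measuring OD600 at 24 h. Controls were untreated bacteria (growth) and broth alone (blank). An OD600 under 0.2 marked a combination as active.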

Each molecule was assayed on Escherichia coli 42 (mcr-1-positive clinical isolate) (assay: OD600 after 24 h growth with compound plus colistin (absorbance units (OD600)); higher = more bacterial growth (less inhibition)). Conditions: first compound 25 µM; colistin concentration 0.5 ug/mL; incubation time 24 h; 37 °C.

OD600, inactive:
C[C@@H](O)[C@H]1C(=O)N2C(C(=O)O)=C(S[C@@H]3CN[C@H](C(=O)N(C)C)C3)[C@H](C)[C@H]12 [Meropenem] + CCC(C)CCCC(=O)N[C@@H](CCN)C(=O)N[C@H](C(=O)N[C@@H](CCN)C(=O)N[C@H]1CCNC(=O)[C@H]([C@@H](C)O)NC(=O)[C@H](CCN)NC(=O)[C@H](CCN)NC(=O)[C@H](CC(C)C)NC(=O)[C@@H](CC(C)C)NC(=O)[C@H](CCN)NC1=O)[C@@H](C)O [colistin] 1.2
C[C@H](CCC(=O)O)[C@H]1CC[C@H]2[C@@H]3[C@H](O)C[C@@H]4C[C@H](O)CC[C@]4(C)[C@H]3C[C@H](O)[C@]12C [Cholic Acid] + CCC(C)CCCC(=O)N[C@@H](CCN)C(=O)N[C@H](C(=O)N[C@@H](CCN)C(=O)N[C@H]1CCNC(=O)[C@H]([C@@H](C)O)NC(=O)[C@H](CCN)NC(=O)[C@H](CCN)NC(=O)[C@H](CC(C)C)NC(=O)[C@@H](CC(C)C)NC(=O)[C@H](CCN)NC1=O)[C@@H](C)O [colistin] 1.16
N#Cc1ccc(C(c2ccc(C#N)cc2)n2cncn2)cc1 [Letrozole] + CCC(C)CCCC(=O)N[C@@H](CCN)C(=O)N[C@H](C(=O)N[C@@H](CCN)C(=O)N[C@H]1CCNC(=O)[C@H]([C@@H](C)O)NC(=O)[C@H](CCN)NC(=O)[C@H](CCN)NC(=O)[C@H](CC(C)C)NC(=O)[C@@H](CC(C)C)NC(=O)[C@H](CCN)NC1=O)[C@@H](C)O [colistin] 1.03
N=C(N)NC(=O)c1nc(Cl)c(N)nc1N [Amiloride hydrochloride dihydrate] + CCC(C)CCCC(=O)N[C@@H](CCN)C(=O)N[C@H](C(=O)N[C@@H](CCN)C(=O)N[C@H]1CCNC(=O)[C@H]([C@@H](C)O)NC(=O)[C@H](CCN)NC(=O)[C@H](CCN)NC(=O)[C@H](CC(C)C)NC(=O)[C@@H](CC(C)C)NC(=O)[C@H](CCN)NC1=O)[C@@H](C)O [colistin] 1.04
CC#CCn1c(N2CCC[C@@H](N)C2)nc2c1c(=O)n(Cc1nc(C)c3ccccc3n1)c(=O)n2C [Linagliptin] + CCC(C)CCCC(=O)N[C@@H](CCN)C(=O)N[C@H](C(=O)N[C@@H](CCN)C(=O)N[C@H]1CCNC(=O)[C@H]([C@@H](C)O)NC(=O)[C@H](CCN)NC(=O)[C@H](CCN)NC(=O)[C@H](CC(C)C)NC(=O)[C@@H](CC(C)C)NC(=O)[C@H](CCN)NC1=O)[C@@H](C)O [colistin] 1.04
CC(C)(CO)C(O)C(=O)NCCCO (racemic) [DL-Panthenol] + CCC(C)CCCC(=O)N[C@@H](CCN)C(=O)N[C@H](C(=O)N[C@@H](CCN)C(=O)N[C@H]1CCNC(=O)[C@H]([C@@H](C)O)NC(=O)[C@H](CCN)NC(=O)[C@H](CCN)NC(=O)[C@H](CC(C)C)NC(=O)[C@@H](CC(C)C)NC(=O)[C@H](CCN)NC1=O)[C@@H](C)O [colistin] 0.929
OC[C@H]1O[C@@H](O[C@@H]2[C@@H](CO)OC(O)(CO)[C@H]2O)[C@H](O)[C@@H](O)[C@H]1O (mixture of isomers) [Lactulose] + CCC(C)CCCC(=O)N[C@@H](CCN)C(=O)N[C@H](C(=O)N[C@@H](CCN)C(=O)N[C@H]1CCNC(=O)[C@H]([C@@H](C)O)NC(=O)[C@H](CCN)NC(=O)[C@H](CCN)NC(=O)[C@H](CC(C)C)NC(=O)[C@@H](CC(C)C)NC(=O)[C@H](CCN)NC1=O)[C@@H](C)O [colistin] 1.13
Cc1[nH]c2ccccc2c1CCNCc1ccc(/C=C/C(=O)NO)cc1 [Panobinostat] + CCC(C)CCCC(=O)N[C@@H](CCN)C(=O)N[C@H](C(=O)N[C@@H](CCN)C(=O)N[C@H]1CCNC(=O)[C@H]([C@@H](C)O)NC(=O)[C@H](CCN)NC(=O)[C@H](CCN)NC(=O)[C@H](CC(C)C)NC(=O)[C@@H](CC(C)C)NC(=O)[C@H](CCN)NC1=O)[C@@H](C)O [colistin] 1.11
Clc1ccc(COC(Cn2ccnc2)c2ccc(Cl)cc2Cl)c(Cl)c1 (stereo unspecified) [Miconazole nitrate] + CCC(C)CCCC(=O)N[C@@H](CCN)C(=O)N[C@H](C(=O)N[C@@H](CCN)C(=O)N[C@H]1CCNC(=O)[C@H]([C@@H](C)O)NC(=O)[C@H](CCN)NC(=O)[C@H](CCN)NC(=O)[C@H](CC(C)C)NC(=O)[C@@H](CC(C)C)NC(=O)[C@H](CCN)NC1=O)[C@@H](C)O [colistin] 1.07
C=C1[C@H](CO)[C@@H](O)C[C@@H]1n1cnc2c(=O)[nH]c(N)nc21 [Entecavir] + CCC(C)CCCC(=O)N[C@@H](CCN)C(=O)N[C@H](C(=O)N[C@@H](CCN)C(=O)N[C@H]1CCNC(=O)[C@H]([C@@H](C)O)NC(=O)[C@H](CCN)NC(=O)[C@H](CCN)NC(=O)[C@H](CC(C)C)NC(=O)[C@@H](CC(C)C)NC(=O)[C@H](CCN)NC1=O)[C@@H](C)O [colistin] 0.975
CNS(=O)(=O)Cc1ccc2[nH]cc(CCN(C)C)c2c1 [Sumatriptan succinate] + CCC(C)CCCC(=O)N[C@@H](CCN)C(=O)N[C@H](C(=O)N[C@@H](CCN)C(=O)N[C@H]1CCNC(=O)[C@H]([C@@H](C)O)NC(=O)[C@H](CCN)NC(=O)[C@H](CCN)NC(=O)[C@H](CC(C)C)NC(=O)[C@@H](CC(C)C)NC(=O)[C@H](CCN)NC1=O)[C@@H](C)O [colistin] 1.08
O=C(O)CCCCCCCC(=O)O [Azelaic acid] + CCC(C)CCCC(=O)N[C@@H](CCN)C(=O)N[C@H](C(=O)N[C@@H](CCN)C(=O)N[C@H]1CCNC(=O)[C@H]([C@@H](C)O)NC(=O)[C@H](CCN)NC(=O)[C@H](CCN)NC(=O)[C@H](CC(C)C)NC(=O)[C@@H](CC(C)C)NC(=O)[C@H](CCN)NC1=O)[C@@H](C)O [colistin] 0.864
CC1=C(CC(=O)O)c2cc(F)ccc2/C1=C\c1ccc([S+](C)[O-])cc1 (stereo unspecified) [Sulindac] + CCC(C)CCCC(=O)N[C@@H](CCN)C(=O)N[C@H](C(=O)N[C@@H](CCN)C(=O)N[C@H]1CCNC(=O)[C@H]([C@@H](C)O)NC(=O)[C@H](CCN)NC(=O)[C@H](CCN)NC(=O)[C@H](CC(C)C)NC(=O)[C@@H](CC(C)C)NC(=O)[C@H](CCN)NC1=O)[C@@H](C)O [colistin] 1.02
C=CC[C@@H]1/C=C(\C)C[C@H](C)C[C@H](OC)[C@H]2O[C@@](O)(C(=O)C(=O)N3CCCC[C@H]3C(=O)O[C@H](/C(C)=C/[C@@H]3CC[C@@H](O)[C@H](OC)C3)[C@H](C)[C@@H](O)CC1=O)[C@H](C)C[C@@H]2OC [Tacrolimus] + CCC(C)CCCC(=O)N[C@@H](CCN)C(=O)N[C@H](C(=O)N[C@@H](CCN)C(=O)N[C@H]1CCNC(=O)[C@H]([C@@H](C)O)NC(=O)[C@H](CCN)NC(=O)[C@H](CCN)NC(=O)[C@H](CC(C)C)NC(=O)[C@@H](CC(C)C)NC(=O)[C@H](CCN)NC1=O)[C@@H](C)O [colistin] 0.906
CC1(C)S[C@@H]2[C@H](NC(=O)[C@H](N)c3ccccc3)C(=O)N2[C@H]1C(=O)O [Ampicillin] + CCC(C)CCCC(=O)N[C@@H](CCN)C(=O)N[C@H](C(=O)N[C@@H](CCN)C(=O)N[C@H]1CCNC(=O)[C@H]([C@@H](C)O)NC(=O)[C@H](CCN)NC(=O)[C@H](CCN)NC(=O)[C@H](CC(C)C)NC(=O)[C@@H](CC(C)C)NC(=O)[C@H](CCN)NC1=O)[C@@H](C)O [colistin] 1.09
O=C1c2c(O)ccc(O)c2C(=O)c2c(NCCNCCO)ccc(NCCNCCO)c21 [Mitoxantrone dihydrochloride] + CCC(C)CCCC(=O)N[C@@H](CCN)C(=O)N[C@H](C(=O)N[C@@H](CCN)C(=O)N[C@H]1CCNC(=O)[C@H]([C@@H](C)O)NC(=O)[C@H](CCN)NC(=O)[C@H](CCN)NC(=O)[C@H](CC(C)C)NC(=O)[C@@H](CC(C)C)NC(=O)[C@H](CCN)NC1=O)[C@@H](C)O [colistin] 1.01
C[C@H](CCC(=O)O)[C@H]1CC[C@H]2[C@@H]3[C@@H](O)C[C@@H]4C[C@H](O)CC[C@]4(C)[C@H]3CC[C@]12C [Ursodeoxycholic acid] + CCC(C)CCCC(=O)N[C@@H](CCN)C(=O)N[C@H](C(=O)N[C@@H](CCN)C(=O)N[C@H]1CCNC(=O)[C@H]([C@@H](C)O)NC(=O)[C@H](CCN)NC(=O)[C@H](CCN)NC(=O)[C@H](CC(C)C)NC(=O)[C@@H](CC(C)C)NC(=O)[C@H](CCN)NC1=O)[C@@H](C)O [colistin] 0.645
CN(C)c1ccc2nc3ccc(=[N+](C)C)cc-3sc2c1 [Methylene Blue trihydrate] + CCC(C)CCCC(=O)N[C@@H](CCN)C(=O)N[C@H](C(=O)N[C@@H](CCN)C(=O)N[C@H]1CCNC(=O)[C@H]([C@@H](C)O)NC(=O)[C@H](CCN)NC(=O)[C@H](CCN)NC(=O)[C@H](CC(C)C)NC(=O)[C@@H](CC(C)C)NC(=O)[C@H](CCN)NC1=O)[C@@H](C)O [colistin] 0.922
Cc1cnc(Nc2ccc(OCCN3CCCC3)cc2)nc1Nc1cccc(S(=O)(=O)NC(C)(C)C)c1 [Fedratinib] + CCC(C)CCCC(=O)N[C@@H](CCN)C(=O)N[C@H](C(=O)N[C@@H](CCN)C(=O)N[C@H]1CCNC(=O)[C@H]([C@@H](C)O)NC(=O)[C@H](CCN)NC(=O)[C@H](CCN)NC(=O)[C@H](CC(C)C)NC(=O)[C@@H](CC(C)C)NC(=O)[C@H](CCN)NC1=O)[C@@H](C)O [colistin] 0.9
C=C1c2c(Cl)ccc(O)c2C(O)=C2C(=O)[C@]3(O)C(O)=C(C(N)=O)C(=O)[C@@H](N(C)C)[C@@H]3[C@@H](O)[C@H]12.O=C(O)c1cc(S(=O)(=O)O)ccc1O [Meclocycline sulfosalicylate salt] + CCC(C)CCCC(=O)N[C@@H](CCN)C(=O)N[C@H](C(=O)N[C@@H](CCN)C(=O)N[C@H]1CCNC(=O)[C@H]([C@@H](C)O)NC(=O)[C@H](CCN)NC(=O)[C@H](CCN)NC(=O)[C@H](CC(C)C)NC(=O)[C@@H](CC(C)C)NC(=O)[C@H](CCN)NC1=O)[C@@H](C)O [colistin] 1.1
O=C(OCc1ccccc1)c1ccccc1 [Benzyl benzoate] + CCC(C)CCCC(=O)N[C@@H](CCN)C(=O)N[C@H](C(=O)N[C@@H](CCN)C(=O)N[C@H]1CCNC(=O)[C@H]([C@@H](C)O)NC(=O)[C@H](CCN)NC(=O)[C@H](CCN)NC(=O)[C@H](CC(C)C)NC(=O)[C@@H](CC(C)C)NC(=O)[C@H](CCN)NC1=O)[C@@H](C)O [colistin] 1.02

2 successive records out of the list so far, for reference:
OD600, inactive:
N=C(N)NC(=O)c1nc(Cl)c(N)nc1N [Amiloride hydrochloride dihydrate] + CCC(C)CCCC(=O)N[C@@H](CCN)C(=O)N[C@H](C(=O)N[C@@H](CCN)C(=O)N[C@H]1CCNC(=O)[C@H]([C@@H](C)O)NC(=O)[C@H](CCN)NC(=O)[C@H](CCN)NC(=O)[C@H](CC(C)C)NC(=O)[C@@H](CC(C)C)NC(=O)[C@H](CCN)NC1=O)[C@@H](C)O [colistin] 1.04
CC#CCn1c(N2CCC[C@@H](N)C2)nc2c1c(=O)n(Cc1nc(C)c3ccccc3n1)c(=O)n2C [Linagliptin] + CCC(C)CCCC(=O)N[C@@H](CCN)C(=O)N[C@H](C(=O)N[C@@H](CCN)C(=O)N[C@H]1CCNC(=O)[C@H]([C@@H](C)O)NC(=O)[C@H](CCN)NC(=O)[C@H](CCN)NC(=O)[C@H](CC(C)C)NC(=O)[C@@H](CC(C)C)NC(=O)[C@H](CCN)NC1=O)[C@@H](C)O [colistin] 1.04
